Experimental data reported in PMC3044157, “The Nuclear Guanine Nucleotide Exchange Factors Ect2 and Net1 Regulate RhoB-Mediated Cell Death after DNA Damage” (PLoS ONE, 2011).
These are yes or no findings as the source states them, for the method shown. Binding seen in cells or lysates may run through a third protein. Some results given as binding are weak or reduced against the parent protein; the word gives no strength. Values belong to the binder of their own block, whether it stands above or below them.

By UniProt entry, the sequences of proteins in these tests, tags left out. Where a name states a change or a piece, a line headed by the entry shows the natural chain unless it says otherwise. Chains listed by the source or under a name are the forms on record and can include a tag or linker.
UniProt P62745: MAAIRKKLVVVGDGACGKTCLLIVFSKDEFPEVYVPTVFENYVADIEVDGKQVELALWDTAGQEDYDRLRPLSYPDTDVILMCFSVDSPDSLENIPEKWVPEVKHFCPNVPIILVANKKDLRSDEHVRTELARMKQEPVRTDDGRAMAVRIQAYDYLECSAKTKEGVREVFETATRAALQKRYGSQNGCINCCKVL
GST-RhoB(17A), nucleotide free RhoB mutant (P62745, form named): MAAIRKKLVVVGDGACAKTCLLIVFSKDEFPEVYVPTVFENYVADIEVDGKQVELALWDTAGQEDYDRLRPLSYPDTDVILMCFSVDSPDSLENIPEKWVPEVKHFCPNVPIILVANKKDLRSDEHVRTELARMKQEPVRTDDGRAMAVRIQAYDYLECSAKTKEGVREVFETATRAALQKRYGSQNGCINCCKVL

Experiments:
[1] = target: GST-RhoB(17A), nucleotide free RhoB mutant (UniProt P62745); assay: pull-down; RhoB(17A) mutant pulldown with lysates of HeLa cells treated with 500 uM H2O2 for the indicated times; immunoblot for the GEFs; only the target purified
[2] = target: GST-RhoB(17A), nucleotide free RhoB mutant (UniProt P62745); assay: pull-down; GST-RhoB(17A) on glutathione-sepharose beads with lysates of MCF-7 cells serum starved overnight and treated with 100 ng/mL EGF for 1 h (Vav2) or serum-containing medium for 1 h (p115 RhoGEF); immunoblot; only the target purified
[3] = target: GST-RhoB(17A), nucleotide free RhoB mutant (UniProt P62745); assay: condition: only MCF-7 cells mock-treated or irradiated with 5 Gy, without EGF stimulation; pull-down; 20 ug purified GST-RhoB(17A) on glutathione-sepharose beads, incubated with clarified MCF-7 lysates for 60 min at 4 C; cells mock-treated or irradiated with 5 Gy (also 400 uM 5-FU for 72 h); immunoblot for the GEFs; only the target purified

binding [1]: binds
B1: neuroepithelial transforming gene 1 (Net1) (natural protein, human (endogenous in MCF-7 and HeLa), UniProt Q7Z628 1-596, looked up)
chain: MEPELAAQKQPRPRRRSRRASGLSTEGATGPSADTSGSELDGRCSLRRGSSFTFLTPGPNWDFTLKRKRREKDDDVVSLSSLDLKEPSNKRVRPLARVTSLANLISPVRNGAVRRFGQTIQSFTLRGDHRSPASAQKFSSRSTVPTPAKRRSSALWSEMLDITMKESLTTREIRRQEAIYEMSRGEQDLIEDLKLARKAYHDPMLKLSIMSEEELTHIFGDLDSYIPLHEDLLTRIGEATKPDGTVEQIGHILVSWLPRLNAYRGYCSNQLAAKALLDQKKQDPRVQDFLQRCLESPFSRKLDLWSFLDIPRSRLVKYPLLLKEILKHTPKEHPDVQLLEDAILIIQGVLSDINLKKGESECQYYIDKLEYLDEKQRDPRIEASKVLLCHGELRSKSGHKLYIFLFQDILVLTRPVTRNERHSYQVYRQPIPVQELVLEDLQDGDVRMGGSFRGAFSNSEKAKNIFRIRFHDPSPAQSHTLQANDVFHKQQWFNCIRAAIAPFQSAGSPPELQGLPELHEECEGNHPSARKLTAQRRASTVSSVTQVEVDENAYRCGSGMQMAEDSKSLKTHQTQPGIRRARDKALSGGKRKETLV
notes: Net1, nuclear guanine nucleotide exchange factor, endogenous in human cancer cell lines, detected by immunoblot; source: endogenous, MCF-7 lysate; endogenous, HeLa lysate

binding [2]: binds | binding [3]: no binding
B2: Vav2 (protein, UniProt P52735 1-878)
chain: MEQWRQCGRWLIDCKVLPPNHRVVWPSAVVFDLAQALRDGVLLCQLLHNLSPGSIDLKDINFRPQMSQFLCLKNIRTFLKVCHDKFGLRNSELFDPFDLFDVRDFGKVISAVSRLSLHSIAQNKGIRPFPSEETTENDDDVYRSLEELADEHDLGEDIYDCVPCEDGGDDIYEDIIKVEVQQPMIRYMQKMGMTEDDKRNCCLLEIQETEAKYYRTLEDIEKNYMSPLRLVLSPADMAAVFINLEDLIKVHHSFLRAIDVSVMVGGSTLAKVFLDFKERLLIYGEYCSHMEHAQNTLNQLLASREDFRQKVEECTLKVQDGKFKLQDLLVVPMQRVLKYHLLLKELLSHSAERPERQQLKEALEAMQDLAMYINEVKRDKETLRKISEFQSSIENLQVKLEEFGRPKIDGELKVRSIVNHTKQDRYLFLFDKVVIVCKRKGYSYELKEIIELLFHKMTDDPMNNKDVKKSHGKMWSYGFYLIHLQGKQGFQFFCKTEDMKRKWMEQFEMAMSNIKPDKANANHHSFQMYTFDKTTNCKACKMFLRGTFYQGYMCTKCGVGAHKECLEVIPPCKFTSPADLDASGAGPGPKMVAMQNYHGNPAPPGKPVLTFQTGDVLELLRGDPESPWWEGRLVQTRKSGYFPSSSVKPCPVDGRPPISRPPSREIDYTAYPWFAGNMERQQTDNLLKSHASGTYLIRERPAEAERFAISIKFNDEVKHIKVVEKDNWIHITEAKKFDSLLELVEYYQCHSLKESFKQLDTTLKYPYKSRERSASRASSRSPASCASYNFSFLSPQGLSFASQGPSAPFWSVFTPRVIGTAVARYNFAARDMRELSLREGDVVRIYSRIGGDQGWWKGETNGRIGWFPSTYVEEEGIQ
